Article PMC10302475

Amino acid sequences for entries named in this document (tags omitted). Residues count along the entry.
UniProt P35712, 618-697: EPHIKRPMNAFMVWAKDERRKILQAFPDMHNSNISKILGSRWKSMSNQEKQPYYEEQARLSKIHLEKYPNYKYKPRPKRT

How the values were obtained:
[1] = target: Sox6 HMG domain (human) (UniProt P35712); assay: EMSA; conditions: 10 mM Tris pH 7.4, 75 mM NaCl, 1 mM EDTA, 1 mM DTT, BSA (100 mg/mL [sic]), 0.01% NP40, 5% glycerol, 37 C; 50 nM DNA or nucleosome (Kdapp is not true Kd); recombinant protein; residues 618-697; protein details: N-terminal His (pET28b); label: 32P end label
[2] = target: Sox6 HMG domain (human) (UniProt P35712); assay: hydroxyl radical footprinting; conditions: all three sites protected; 10 mM Tris pH 7.4, 75 mM NaCl, 1 mM EDTA, 1 mM DTT, BSA (100 mg/mL [sic]), 0.01% NP40, 5% glycerol, 37 C; 50 nM DNA or nucleosome (Kdapp is not true Kd); recombinant protein; residues 618-697; protein details: N-terminal His (pET28b); label: 32P end label

Row | Sequence | binding result [1] | binding result [2]
1 | GCATGATTCTTAAGACCGAGTTCATCCCTTATGTGATGGACCCTATACGCGGCCGCCATCAGAATCCCGGTGCCGAGGCCGCTCAATTGGTCGTAGACAGCTCTAGCACCGCTTAAACGCACGTAGGACAATGGAGGCGCGTTTTAACCGCCAAGGGGATTACTCCCTAGTCTCCAGGCACGTGTCAGATATATACATCGATGTGCATGTATTGAACAGCGACCTTGCCGGTGCCAGTCGGATAGAATTCCGGAC (double strand) [601-SHL0 naked DNA] | binds | –
2 | GCATGATTCTTAAGACCGAGTTCATCCCTTATGTGATGGACCCTATACGCGGCCGCCATCAGAATCCCGGTGCCGAGGCCGCTCAATTGGTCGTAGACAGCTCTAGCACCGCTTAAACGCACGTAGGACAATGGAGGCGCGTTTTGGACAATGGAGGCATTACTCCGGACAATGGAGGCACGTGTCAGATATATACATCGATGTGCATGTATTGAACAGCGACCTTGCCGGTGCCAGTCGGATAGAATTCCGGAC (double strand) [601-SHL024 naked DNA] | binds | binds

For part of these data: The exact form of at least one protein or probe is not confirmed. For part of these data: At least one verdict rests on a figure or table, not on a statement of the authors.
